{"source": "patent US5827825", "about": "(dated 1998)", "test": "Fmoc solid-phase peptide synthesis; Sasrin resin; symmetric anhydride method; N,N-dicyclohexylcarbodiimide/hydroxybenzotriazole fo", "details": "whole synthesis, scale 0.20 mmol", "note": "Square brackets hold non-standard residues; d marks the D form. Ends that are not written are not given here. * marks the point of attachment. His(Trt) = N[C@@H](Cc1cn(C(c2ccccc2)(c2ccccc2)c2ccccc2)cn1)C(=O)O; Fmoc = O=C(OCC1c2ccccc2-c2ccccc21)*; Mtr = COc1cc(C)c(S(=O)(=O)*)c(C)c1C; Boc = CC(C)(C)OC(=O)*"}
{"substance": "Fmoc-PV[His(Trt)]LK(Boc)R(Mtr)", "values": [{"measurement": "crude mass", "value": 180, "unit": "mg"}]}
